Reference: PubChem BioAssay AID504808 (Drosophila RNAi Screening Center, 2011)

Screen: 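Chromatin factors that keep E2F targets switched off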 (primary screen)
System: Drosophila S2 cells
Knock-down reagent: long dsRNA against Drosophila genes
Measurement: 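Dual luciferase plate measurements; E2F-specific signal taken as firefly over Renilla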
Scale: E2F firefly: higher = more E2F reporter activity; Renilla normaliser: higher = more normaliser reporter signal
Rule for the call: 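Called active if the normalised E2F reporter went up by over 50%; the cutoff is arbitrary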
The screen tested about 21,000 reagents; below is an unselected part of those that have a named target and a result. Of all reagents, 18 (0.084%) are marked active. 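Raw counts without plate normalisation, one of two replicates; the ratio scores behind the calls were not deposited.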 Entries without a mark were called inactive. A plus sign joins genes that one reagent is predicted to hit. Reagent sequences are not shown. Not stated in the record: the amount of reagent, the time to read-out.

With knock-down of CG3356 [DRSC04358], the record shows E2F firefly, rep 1 = 96804; Renilla normaliser, rep 1 = 3827.
Against CG13594 [DRSC04229], the values are E2F firefly, rep 1 = 1.12e5; Renilla normaliser, rep 1 = 4328.
With knock-down of daed [DRSC00299], the record shows E2F firefly, rep 1 = 92750; Renilla normaliser, rep 1 = 3710.
Against CG10347 [DRSC19352], the values are E2F firefly, rep 1 = 1.29e5; Renilla normaliser, rep 1 = 6177.
TpnC4 [DRSC04856] scored E2F firefly, rep 1 = 1.12e5; Renilla normaliser, rep 1 = 4808.
Knock-down of Itpr [DRSC12354] resulted in: E2F firefly, rep 1 = 1.37e5; Renilla normaliser, rep 1 = 6221.
Knock-down of CG17776 [DRSC18136] came out at: E2F firefly, rep 1 = 1.46e5; Renilla normaliser, rep 1 = 6331.
For clt [DRSC04621], the entry reads E2F firefly, rep 1 = 1.09e5; Renilla normaliser, rep 1 = 5022.
For CG10005 [DRSC14172], the entry reads E2F firefly, rep 1 = 1.22e5; Renilla normaliser, rep 1 = 5545.
Knock-down of Elp5 [DRSC08547] resulted in: E2F firefly, rep 1 = 92962; Renilla normaliser, rep 1 = 4239.
After knock-down of AlkB [DRSC19115], the screen gave E2F firefly, rep 1 = 85211; Renilla normaliser, rep 1 = 3067.
Depletion of CG4914 [DRSC10458] resulted in: E2F firefly, rep 1 = 1.82e5; Renilla normaliser, rep 1 = 8266.
Silencing of Ufsp1 [DRSC04958] gave: E2F firefly, rep 1 = 1.33e5; Renilla normaliser, rep 1 = 5149.
After knock-down of Tsp97E [DRSC16019], the screen gave E2F firefly, rep 1 = 1608; Renilla normaliser, rep 1 = 960.
ec [DRSC17285] gave E2F firefly, rep 1 = 81720; Renilla normaliser, rep 1 = 2971.
After knock-down of ec [DRSC17286], the screen gave E2F firefly, rep 1 = 88516; Renilla normaliser, rep 1 = 3283.
ec [DRSC18658] scored E2F firefly, rep 1 = 99668; Renilla normaliser, rep 1 = 5096.
After knock-down of imd [DRSC05928] the results were E2F firefly, rep 1 = 85307; Renilla normaliser, rep 1 = 3175.
Against Lip4 [DRSC02930], the entry reads E2F firefly, rep 1 = 1.46e5; Renilla normaliser, rep 1 = 5051.
After knock-down of Cyp317a1 [DRSC07366] the results were E2F firefly, rep 1 = 1.02e5; Renilla normaliser, rep 1 = 3752.
After knock-down of l(1)10Bb [DRSC20346], the record shows E2F firefly, rep 1 = 1.08e5; Renilla normaliser, rep 1 = 6324.
Against pre-mod(mdg4)-W + pre-mod(mdg4)-Y + mod(mdg4) + 3 more [DRSC16328], the entry reads E2F firefly, rep 1 = 1.13e5; Renilla normaliser, rep 1 = 7046.
Prosbeta6 [DRSC11256] showed E2F firefly, rep 1 = 64269; Renilla normaliser, rep 1 = 3909.
CG8952 [DRSC20133] showed E2F firefly, rep 1 = 8502; Renilla normaliser, rep 1 = 748.
Depletion of CG10365 [DRSC14234] gave: E2F firefly, rep 1 = 1.16e5; Renilla normaliser, rep 1 = 5362.
Depletion of knrl [DRSC11892] gave: E2F firefly, rep 1 = 69152; Renilla normaliser, rep 1 = 3143.
CG14538 (retired record) [DRSC02396] showed E2F firefly, rep 1 = 1.60e5; Renilla normaliser, rep 1 = 5078.
CG6294 + CG6299 + CG15642 [DRSC19981] gave E2F firefly, rep 1 = 2.33e5; Renilla normaliser, rep 1 = 6713.
For pho [DRSC17219], the values are E2F firefly, rep 1 = 1.31e5; Renilla normaliser, rep 1 = 7543.
CG10357 [DRSC08155] scored E2F firefly, rep 1 = 91538; Renilla normaliser, rep 1 = 4336.
After knock-down of CG32452 [DRSC11581] the results were E2F firefly, rep 1 = 96367; Renilla normaliser, rep 1 = 4001.
After knock-down of trem [DRSC15575], the screen gave E2F firefly, rep 1 = 1.31e5; Renilla normaliser, rep 1 = 6887.
After knock-down of CG8475 [DRSC03091], the screen gave E2F firefly, rep 1 = 86325; Renilla normaliser, rep 1 = 3539.
Knock-down of corn [DRSC11021] resulted in: E2F firefly, rep 1 = 69041; Renilla normaliser, rep 1 = 3096.
For CG8135 + BBIP1 [DRSC12739], the entry reads E2F firefly, rep 1 = 77612; Renilla normaliser, rep 1 = 3989.
Knock-down of CG8135 + BBIP1 [DRSC16384] came out at: E2F firefly, rep 1 = 1.41e5; Renilla normaliser, rep 1 = 5654.

5 consecutive records from above, for reference:
CG4914 [DRSC10458] | E2F firefly, rep 1 = 1.82e5; Renilla normaliser, rep 1 = 8266
Ufsp1 [DRSC04958] | E2F firefly, rep 1 = 1.33e5; Renilla normaliser, rep 1 = 5149
Tsp97E [DRSC16019] | E2F firefly, rep 1 = 1608; Renilla normaliser, rep 1 = 960
ec [DRSC17285] | E2F firefly, rep 1 = 81720; Renilla normaliser, rep 1 = 2971
ec [DRSC17286] | E2F firefly, rep 1 = 88516; Renilla normaliser, rep 1 = 3283
